Library screen at single concentrations

Data taken from ChEMBL document CHEMBL3988442, “University of Dundee, Small-Polar-MMV Screening Library” (2021).

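Assay of Toxoplasma gondii numbers, read through their beta-galactosidase reporter with a colour substrate. Compounds at 50 µM. Higher reads as fewer parasites (inferred from which compounds were picked for retests). Of about 18,000 compounds tested this way, about 170 (0.94%) reached 50% or more in at least one test.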

Results are given as percent effect.
How 0% and 100% were set is not recorded. Most values in the screen are low, and negative values occur.
This is an unselected part of the compounds tested.

compound,effect
CCN(Cc1cccnc1)C(=O)c1cnc(O)cn1,-15.47%
CC1CCN(CCCNc2ccc3nnnn3n2)CC1,3.391%
CN(C(=O)c1cccs1)C1CCS(=O)(=O)C1 (stereo unspecified),4.886%
COc1ccc(C(=O)NCc2ccccn2)cc1F,-1.06%
CCOc1ccnc(NCCc2nncn2CC)n1,2.057%
Cc1noc(C)c1CN1CCCCC1C(N)=O (stereo unspecified),-12.46%
CSCC[C@H]1NC(=O)c2ccccc2NC1=O,-13.21%
CN1CCCC(CCN)C1 (stereo unspecified),-1.631%
O=S(=O)(Cc1nc(C2CC2)n[nH]1)c1ccc(Br)cn1,14.2%
CS(=O)(=O)Nc1ccc(F)c(F)c1,-30.56%
CCCN(CCCN(C)C)C(=O)CCCOC,-14.11%
CCCNCc1ccc2c(c1)n(C)c(=O)n2C,-0.8091%
CS(=O)(=O)CCCNc1ccc2c(c1)C(=O)CCC2,-4.611%
CNC(=O)C1CCCN1Cc1ncc(C(C)(C)C)o1 (stereo unspecified),-6.467%
CCC(CNC(=O)c1ccoc1)N1CCCC1 (stereo unspecified),9.191%
Cc1ccc(OC(C)C(=O)NCCCC(N)=O)cc1 (stereo unspecified),12.18%
CNC(=O)c1ccc(C)c(F)c1,8.866%
Cc1cc(NC(=O)CN2CCCC2C(=O)N(C)C)on1 (stereo unspecified),20.52%
O=C(Nc1ccc2[nH]nnc2c1)C1=CCCCO1,-6.823%
CCN1CCN(C(C)CNC(=O)Cn2cnnn2)CC1 (stereo unspecified),-5.722%
COC(C)C(=O)N[C@@H](C)c1nc2ccccc2[nH]1 (stereo partly specified),-1.862%
CN1C(=O)[C@H]2CN(Cc3ccsc3)C[C@H]2C1=O,-19.72%
O=C(Cn1ccc(C(F)(F)F)n1)NCc1ccco1,12.08%
Cc1cc(N2CCNCC2)ccn1,-0.8554%
Cc1cc(C)n(CCC(=O)NCc2ccccn2)n1,-3.878%
CCN1CCN(C(=O)c2cccnc2SC(C)C)CC1,-1.078%
Cc1n[nH]c(C)c1CCN(C)C(=O)c1cccc(N)n1,1.225%
CC(=O)Nc1nc(C(=O)NCCc2cccnc2)cs1,-17.49%
Fc1ccc2nc(N3CCCNCC3)oc2c1F,4.493%
NS(=O)(=O)CC1CCNCC1,35.44%
CN1CCCN(C(=O)c2cc(F)cc(F)c2)CC1,-2.394%
CN(C)C(=O)c1cccc(-c2ccc(C(N)=O)cc2)n1,6.869%
CC(C(=O)N1CCOCC1)N1CCNCC1 (stereo unspecified),2.954%
N[C@H]1C[C@@H](c2cc(NCCc3cc[nH]n3)ncn2)C1,-7.421%
CCO[C@H]1CN(Cc2cc(C(C)=O)cn2C)C[C@@H]1O,-11.63%
CCn1nc(C)cc1C(=O)N1CCC(O)(C(F)(F)F)C1 (stereo unspecified),-1.873%
N#Cc1nnc(-c2ccccc2)o1,-2.687%
OCC(O)CN1CCCN(Cc2cccnc2)CC1 (stereo unspecified),31.88%
CN(CCCO)C1CCN(C(=O)Nc2ccsc2)CC1,21.74%
CN(CCn1cnnc1)c1ccc2ccc(F)cc2n1,-2.094%
CO[C@@H]1CCOC[C@H]1NC(=O)c1cccc(N(C)C)c1,-11.93%
COc1ccc(C(C)=O)cc1CN1CCCC1,-1.788%
CCC(CC)(CN)C(=O)N1CCOC(C)(C)C1,1.041%
O=C(CC(F)(F)F)Nc1cnccn1,10.75%
CC(=O)Nc1ccc(C(=O)CC#N)cc1,-3.465%
NC1CC(=O)N(c2ccccc2F)C1 (stereo unspecified),8.551%
CN(C)c1cc(CN)c2ccccc2n1,-3.61%
COc1ccc(-c2ccnc(CO)c2)c(OC)c1,-15.29%
NCc1ccc(OC2CCCC2)nc1,6.777%
CCN(CC)C(=O)CN1CCC(N)CC1,-1.204%
O=C(Cn1cc(I)cn1)Nc1ccccn1,11.87%
Cn1c(=O)c2c(ncn2CCC#N)n(C)c1=O,8.506%
CO[C@H]1CNC[C@H]1OC,5.786%
NCc1ccc(N2CCC(O)CC2)cc1,-1.941%
CCCNCCc1ccccn1,20.89%
O=C(NCCNc1ncccn1)c1ccc(O)c(Cl)c1,-7.944%
CSCC(=O)NCc1ccc(CN2CCCC2)cc1,-7.523%
CS(=O)(=O)N1CCCC(C(=O)Nc2cccnc2O)C1 (stereo unspecified),0.1158%
Cn1cncc1CCNC(=O)c1ccc(Cl)cn1,1.162%
CN(C)c1ncc(CN2CCC(O)(CO)C2)cn1 (stereo unspecified),10.12%
CC(C)(C#N)CCCSc1cnn[nH]1,-0.5063%
COc1cccc(C(CO)Nc2ncccc2C#N)c1 (stereo unspecified),25.82%
NC(CO)c1ccc(Cl)cc1C(F)(F)F (stereo unspecified),-7.109%
Cc1cc(C(=O)N(C)C)ccc1NS(C)(=O)=O,3.423%
Cc1nn(CCNC(=O)C(C)NS(C)(=O)=O)c(C)c1C (stereo unspecified),-26.49%
CCOc1ccc(CNS(=O)(=O)c2cn(C)cn2)cc1,6.326%
NCCS(=O)(=O)N1CCCc2ccccc21,-4.281%
COCC(C)(C)C(=O)NCc1cc(F)ccc1C,10.98%
CCNCc1ccc(OCC(N)=O)cc1,4.64%
NCC1CCCC(=O)N1 (stereo unspecified),-3.46%
Cc1cccc(C(=O)NCC2(O)CCC2)c1O,-1.266%
CN(C(=O)OC(C)(C)C)C1CCCNC1 (stereo unspecified),11.62%
COCc1cccc(C(=O)NC(C)COC)c1 (stereo unspecified),-4.766%
CC(NC(=O)c1ccc(Cl)c(I)c1)C(=O)N(C)C (stereo unspecified),-8.134%
O=C(NCC(F)(F)F)C1CCCN(c2ncccn2)C1 (stereo unspecified),-1.913%
CC(NCCn1cc(Br)cn1)c1ccncc1 (stereo unspecified),2.181%

The last 9 entries again:

compound	effect
COCC(C)(C)C(=O)NCc1cc(F)ccc1C	10.98%
CCNCc1ccc(OCC(N)=O)cc1	4.64%
NCC1CCCC(=O)N1 (stereo unspecified)	-3.46%
Cc1cccc(C(=O)NCC2(O)CCC2)c1O	-1.266%
CN(C(=O)OC(C)(C)C)C1CCCNC1 (stereo unspecified)	11.62%
COCc1cccc(C(=O)NC(C)COC)c1 (stereo unspecified)	-4.766%
CC(NC(=O)c1ccc(Cl)c(I)c1)C(=O)N(C)C (stereo unspecified)	-8.134%
O=C(NCC(F)(F)F)C1CCCN(c2ncccn2)C1 (stereo unspecified)	-1.913%
CC(NCCn1cc(Br)cn1)c1ccncc1 (stereo unspecified)	2.181%